Article PMC11004410

Sequences of proteins named here, by UniProt entry; tags and fusion partners are left off. A change or cut given only in a name is not applied to a line headed by its entry.
UniProt P02647: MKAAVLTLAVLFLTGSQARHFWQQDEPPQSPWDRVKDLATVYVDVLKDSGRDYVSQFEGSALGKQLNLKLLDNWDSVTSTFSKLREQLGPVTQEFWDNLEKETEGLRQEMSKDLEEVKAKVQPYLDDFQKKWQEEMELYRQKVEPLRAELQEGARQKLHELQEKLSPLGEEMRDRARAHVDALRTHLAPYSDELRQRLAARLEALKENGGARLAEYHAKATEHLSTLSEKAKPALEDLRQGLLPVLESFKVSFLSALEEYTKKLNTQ

Target: T1, GFP-SR-B1 (fusion protein) (UniProt Q8WTV0)
T1 sequence: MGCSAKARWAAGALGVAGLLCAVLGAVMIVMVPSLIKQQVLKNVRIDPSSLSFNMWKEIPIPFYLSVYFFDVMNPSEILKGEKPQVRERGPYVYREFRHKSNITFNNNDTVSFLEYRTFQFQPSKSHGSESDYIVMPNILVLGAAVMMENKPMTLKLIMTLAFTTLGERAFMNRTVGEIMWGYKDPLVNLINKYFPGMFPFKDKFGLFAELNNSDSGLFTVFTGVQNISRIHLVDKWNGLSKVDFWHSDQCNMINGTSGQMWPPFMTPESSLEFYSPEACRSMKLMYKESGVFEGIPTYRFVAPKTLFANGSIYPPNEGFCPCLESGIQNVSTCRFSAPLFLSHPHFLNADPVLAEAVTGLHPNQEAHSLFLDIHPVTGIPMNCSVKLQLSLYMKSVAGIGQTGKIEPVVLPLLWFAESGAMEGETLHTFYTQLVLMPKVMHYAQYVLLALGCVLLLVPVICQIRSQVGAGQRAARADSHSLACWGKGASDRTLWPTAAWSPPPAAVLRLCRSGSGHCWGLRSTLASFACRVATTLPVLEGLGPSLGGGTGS
Test: pull-down; GFP-SR-B1 or GFP alone from HeLa lysate immobilised on GFP nanotrap beads overnight at 4°C, washed 3x with lysis buffer; APOA1 variant protein (10 or 20 μg) added in PBS, 1 ml, 4°C, 3 h; washed 3x-4x with high salt (1.5 M) PBS; Western blot with anti-APOA1 and anti-GFP; bands normalised to immobilised SR-B1-GFP and to input; both purified

binding: binds
Substance: recombinant wild-type apolipoprotein A1 (APOA1-WT), from ClearColi (from UniProt P02647)

No constants are given. Whether binding was seen depends on the method and setting. In cells and extracts the contact can be indirect. A result given as binding can be weak or reduced; the word gives no strength. Tags and fused reporters may be left off the sequences shown.
